From paper PMC7079383 come the findings set out here.

The chains behind the UniProt entries cited, without tags or fusion partners. Where a name states a change or a piece, a line headed by the entry shows the natural chain unless it says otherwise.
UniProt P16220: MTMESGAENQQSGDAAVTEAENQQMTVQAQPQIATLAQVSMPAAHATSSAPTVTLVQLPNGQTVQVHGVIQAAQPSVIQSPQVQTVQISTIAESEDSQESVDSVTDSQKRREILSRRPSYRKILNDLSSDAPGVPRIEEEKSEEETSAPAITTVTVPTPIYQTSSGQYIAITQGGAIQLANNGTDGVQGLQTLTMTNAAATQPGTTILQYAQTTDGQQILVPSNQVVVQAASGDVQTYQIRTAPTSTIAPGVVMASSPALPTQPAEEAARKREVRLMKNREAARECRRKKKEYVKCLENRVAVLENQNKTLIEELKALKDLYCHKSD

Construct, isoform or probe ends are uncertain for at least one entry. At least one result comes from cells or an extract, where the contact may be indirect.

In the series the target is CREB (endogenous, U251 nuclear extract) (UniProt P16220). As to the kind of experiment: EMSA, supershift. The note with it: Non-radioactive EMSA kit (Viagene), 10 ug U251 nuclear extract, room temperature, 20 min with competitor then 20 min with biotin probe, 6% native PAGE; protein in an extract; label: biotin (labelled probe, unlabelled as competitor).

As to “AAGCCACTGGAGGGCACGTCACGGAGTG (double strand) [wild-type CREB-E (CRE of GDNF enhancer II)]”, the binding result was “binds”.

For the sequence “CGCGCCGGTTGACGTGGTGTCTCGTTCG (double strand) [wild-type CREB-S (CRE of GDNF silencer II)]”, the binding result is “binds”.
